Measured values published in publication PMC11362597.
These are yes or no findings as the source states them, for the method shown. In cells and extracts the contact can be indirect. Here binding means that the protein was enriched with, or labelled near, the bait; the list need not be complete.

Sequences of proteins named here, by UniProt entry; tags and fusion partners are left off. Residues count along the entry.
UniProt Q86UX7: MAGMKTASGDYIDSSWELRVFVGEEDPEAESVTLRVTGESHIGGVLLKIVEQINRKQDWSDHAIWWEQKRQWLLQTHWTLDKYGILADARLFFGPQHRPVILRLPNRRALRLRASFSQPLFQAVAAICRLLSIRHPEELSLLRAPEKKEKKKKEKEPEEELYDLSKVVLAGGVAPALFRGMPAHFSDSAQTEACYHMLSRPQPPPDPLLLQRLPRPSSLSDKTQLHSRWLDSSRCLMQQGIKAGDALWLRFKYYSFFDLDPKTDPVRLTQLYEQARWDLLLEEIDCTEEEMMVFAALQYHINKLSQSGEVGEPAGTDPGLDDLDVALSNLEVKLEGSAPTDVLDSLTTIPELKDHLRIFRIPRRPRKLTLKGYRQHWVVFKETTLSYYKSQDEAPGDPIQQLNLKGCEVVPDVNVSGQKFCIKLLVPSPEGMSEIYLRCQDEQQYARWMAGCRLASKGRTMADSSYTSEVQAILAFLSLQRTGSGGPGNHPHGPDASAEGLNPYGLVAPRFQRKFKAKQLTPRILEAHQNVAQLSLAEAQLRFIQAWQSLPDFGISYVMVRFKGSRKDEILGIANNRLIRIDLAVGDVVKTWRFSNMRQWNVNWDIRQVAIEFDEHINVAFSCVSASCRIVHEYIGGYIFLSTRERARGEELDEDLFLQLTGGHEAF
UniProt P19878: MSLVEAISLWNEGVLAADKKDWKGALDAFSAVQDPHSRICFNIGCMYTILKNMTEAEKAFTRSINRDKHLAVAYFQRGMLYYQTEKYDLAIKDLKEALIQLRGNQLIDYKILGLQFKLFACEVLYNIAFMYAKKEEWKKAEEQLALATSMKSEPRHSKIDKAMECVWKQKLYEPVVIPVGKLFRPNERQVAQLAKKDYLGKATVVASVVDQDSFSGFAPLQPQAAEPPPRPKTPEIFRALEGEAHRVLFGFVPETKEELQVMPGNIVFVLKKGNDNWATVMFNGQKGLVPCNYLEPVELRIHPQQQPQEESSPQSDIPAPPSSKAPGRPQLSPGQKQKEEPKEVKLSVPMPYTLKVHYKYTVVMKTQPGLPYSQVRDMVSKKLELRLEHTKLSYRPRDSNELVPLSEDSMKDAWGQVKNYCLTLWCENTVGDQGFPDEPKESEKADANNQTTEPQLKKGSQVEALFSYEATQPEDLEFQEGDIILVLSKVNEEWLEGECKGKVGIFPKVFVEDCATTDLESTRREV
UniProt P30153: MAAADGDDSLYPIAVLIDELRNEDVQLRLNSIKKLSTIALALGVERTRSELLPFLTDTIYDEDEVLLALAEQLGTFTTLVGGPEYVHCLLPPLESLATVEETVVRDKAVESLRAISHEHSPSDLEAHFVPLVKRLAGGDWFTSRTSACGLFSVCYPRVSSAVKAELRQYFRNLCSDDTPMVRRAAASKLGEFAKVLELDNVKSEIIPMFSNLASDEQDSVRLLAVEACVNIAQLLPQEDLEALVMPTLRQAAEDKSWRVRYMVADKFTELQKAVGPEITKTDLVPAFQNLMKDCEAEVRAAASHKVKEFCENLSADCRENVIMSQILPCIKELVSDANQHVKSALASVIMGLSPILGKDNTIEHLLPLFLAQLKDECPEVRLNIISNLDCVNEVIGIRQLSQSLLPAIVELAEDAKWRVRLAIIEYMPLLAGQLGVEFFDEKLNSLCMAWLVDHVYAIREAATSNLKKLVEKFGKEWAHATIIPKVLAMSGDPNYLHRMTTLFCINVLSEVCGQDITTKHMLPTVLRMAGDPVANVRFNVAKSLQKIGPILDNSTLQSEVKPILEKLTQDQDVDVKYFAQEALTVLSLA
UniProt Q05655: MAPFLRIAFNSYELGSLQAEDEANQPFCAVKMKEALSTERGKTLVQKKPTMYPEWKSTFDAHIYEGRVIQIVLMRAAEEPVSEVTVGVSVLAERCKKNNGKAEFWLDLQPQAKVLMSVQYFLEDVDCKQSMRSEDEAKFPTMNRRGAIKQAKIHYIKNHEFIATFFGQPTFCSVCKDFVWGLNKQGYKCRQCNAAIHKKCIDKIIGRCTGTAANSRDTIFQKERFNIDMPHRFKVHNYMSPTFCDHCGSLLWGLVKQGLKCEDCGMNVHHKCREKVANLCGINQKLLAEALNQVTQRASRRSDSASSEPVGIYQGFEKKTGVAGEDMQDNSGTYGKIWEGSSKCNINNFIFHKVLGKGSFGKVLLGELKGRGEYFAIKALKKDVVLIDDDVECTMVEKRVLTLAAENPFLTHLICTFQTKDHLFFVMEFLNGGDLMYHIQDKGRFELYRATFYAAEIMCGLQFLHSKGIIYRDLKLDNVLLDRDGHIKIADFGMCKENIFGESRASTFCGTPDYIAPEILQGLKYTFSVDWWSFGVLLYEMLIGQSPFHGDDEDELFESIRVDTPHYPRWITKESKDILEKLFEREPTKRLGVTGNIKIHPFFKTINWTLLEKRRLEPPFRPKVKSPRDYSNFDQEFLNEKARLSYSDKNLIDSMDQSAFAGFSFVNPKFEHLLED
UniProt P29350: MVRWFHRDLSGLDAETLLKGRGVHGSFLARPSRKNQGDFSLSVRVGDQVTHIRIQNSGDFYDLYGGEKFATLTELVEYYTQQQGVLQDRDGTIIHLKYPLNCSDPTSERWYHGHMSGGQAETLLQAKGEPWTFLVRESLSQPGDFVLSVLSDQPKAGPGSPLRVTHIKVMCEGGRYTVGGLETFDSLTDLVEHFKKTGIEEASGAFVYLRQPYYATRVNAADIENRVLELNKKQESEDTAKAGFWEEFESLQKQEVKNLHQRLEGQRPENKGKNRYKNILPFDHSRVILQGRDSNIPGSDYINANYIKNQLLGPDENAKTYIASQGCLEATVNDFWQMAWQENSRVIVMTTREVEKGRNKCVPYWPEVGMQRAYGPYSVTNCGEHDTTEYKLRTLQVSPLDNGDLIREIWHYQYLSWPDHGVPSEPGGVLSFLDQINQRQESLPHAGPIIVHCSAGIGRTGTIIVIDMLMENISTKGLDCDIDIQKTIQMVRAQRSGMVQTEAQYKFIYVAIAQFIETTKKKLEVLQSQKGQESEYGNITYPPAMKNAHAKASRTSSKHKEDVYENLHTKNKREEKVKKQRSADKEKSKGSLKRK
UniProt P63104: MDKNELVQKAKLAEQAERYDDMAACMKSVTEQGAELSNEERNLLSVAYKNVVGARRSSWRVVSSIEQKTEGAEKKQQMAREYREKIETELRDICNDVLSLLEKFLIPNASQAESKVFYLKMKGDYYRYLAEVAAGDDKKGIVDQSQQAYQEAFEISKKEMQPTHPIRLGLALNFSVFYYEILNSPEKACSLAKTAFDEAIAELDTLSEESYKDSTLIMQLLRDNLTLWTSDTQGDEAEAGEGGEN
UniProt P18085: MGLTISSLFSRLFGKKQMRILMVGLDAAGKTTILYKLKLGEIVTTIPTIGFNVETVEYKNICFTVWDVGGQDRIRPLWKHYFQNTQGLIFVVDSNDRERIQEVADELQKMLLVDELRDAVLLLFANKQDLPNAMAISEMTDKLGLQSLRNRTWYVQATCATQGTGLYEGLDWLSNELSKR
UniProt P07237, residues 18-508: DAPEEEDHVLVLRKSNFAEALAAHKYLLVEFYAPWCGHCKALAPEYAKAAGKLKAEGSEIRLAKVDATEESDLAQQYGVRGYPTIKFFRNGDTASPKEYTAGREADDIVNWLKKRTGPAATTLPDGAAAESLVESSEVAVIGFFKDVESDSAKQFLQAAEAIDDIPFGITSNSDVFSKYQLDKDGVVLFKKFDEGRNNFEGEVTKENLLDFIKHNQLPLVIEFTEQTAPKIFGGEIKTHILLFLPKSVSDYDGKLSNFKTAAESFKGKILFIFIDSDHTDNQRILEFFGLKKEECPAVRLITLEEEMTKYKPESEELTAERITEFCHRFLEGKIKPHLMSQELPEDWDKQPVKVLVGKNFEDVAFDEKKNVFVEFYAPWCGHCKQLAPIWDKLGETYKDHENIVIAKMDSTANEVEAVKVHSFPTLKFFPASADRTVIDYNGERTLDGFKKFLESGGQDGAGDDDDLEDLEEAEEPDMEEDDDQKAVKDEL
UniProt P84095: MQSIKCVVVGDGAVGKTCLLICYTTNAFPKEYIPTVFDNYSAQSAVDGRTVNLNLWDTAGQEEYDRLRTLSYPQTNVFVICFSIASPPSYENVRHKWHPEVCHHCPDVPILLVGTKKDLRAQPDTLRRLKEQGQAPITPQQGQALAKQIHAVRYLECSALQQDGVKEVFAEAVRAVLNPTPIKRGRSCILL
UniProt P62258: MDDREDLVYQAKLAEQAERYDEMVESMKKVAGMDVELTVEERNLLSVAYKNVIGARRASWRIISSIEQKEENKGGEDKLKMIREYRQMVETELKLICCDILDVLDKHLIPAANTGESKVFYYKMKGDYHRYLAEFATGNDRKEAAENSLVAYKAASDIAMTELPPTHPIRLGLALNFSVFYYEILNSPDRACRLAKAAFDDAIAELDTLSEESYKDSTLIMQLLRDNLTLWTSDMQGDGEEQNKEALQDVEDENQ

What was measured:
[1] = biological target: GST-fused recombinant ARHGAP25 (human) (UniProt P42331); assay: affinity purification with mass spectrometry; GST-ARHGAP25 (control: GST) on glutathione agarose beads incubated with intact total lysate of human neutrophilic granulocytes, 45 min, 4 °C; washed thrice with PBST; eluted by boiling in Laemmli buffer; LC-MS/MS, label-free quantification; only the target purified
[2] = biological target: T1, endogenous ARHGAP25 (human (endogenous in neutrophilic granulocytes)) (UniProt P42331); assay: affinity purification with mass spectrometry; co-immunoprecipitation of endogenous ARHGAP25: magnetic beads coated with polyclonal ARHGAP25 antibody (control: rabbit IgG) incubated with intact total neutrophil lysate, 45 min, 4 °C; washed thrice with PBST; eluates measured by mass spectrometry
T1 sequence: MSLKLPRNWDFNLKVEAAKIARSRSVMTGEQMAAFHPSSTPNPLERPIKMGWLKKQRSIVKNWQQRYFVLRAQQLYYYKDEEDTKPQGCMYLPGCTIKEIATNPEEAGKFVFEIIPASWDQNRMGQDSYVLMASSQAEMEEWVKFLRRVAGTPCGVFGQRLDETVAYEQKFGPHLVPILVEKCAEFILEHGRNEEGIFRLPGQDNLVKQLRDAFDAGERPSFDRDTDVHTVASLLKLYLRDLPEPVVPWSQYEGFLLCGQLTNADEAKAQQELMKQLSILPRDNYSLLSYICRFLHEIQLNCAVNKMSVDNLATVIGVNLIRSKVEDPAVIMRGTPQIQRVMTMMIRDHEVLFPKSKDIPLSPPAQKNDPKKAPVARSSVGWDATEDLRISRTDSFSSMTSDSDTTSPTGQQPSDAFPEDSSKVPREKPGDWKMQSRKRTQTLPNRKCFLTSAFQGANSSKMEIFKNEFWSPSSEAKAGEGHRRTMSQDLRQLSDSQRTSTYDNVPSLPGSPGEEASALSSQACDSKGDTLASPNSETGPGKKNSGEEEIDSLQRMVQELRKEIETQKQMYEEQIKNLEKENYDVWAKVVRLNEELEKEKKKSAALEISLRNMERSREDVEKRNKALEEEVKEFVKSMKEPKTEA

Row | Substance | binding [1] | binding [2]
1 | FERMT3 (from UniProt Q86UX7 1-667) | binds | 
2 | FGR (from UniProt P09769 1-529) | binds | binds
3 | NCF2 (from UniProt P19878 1-526) | binds | binds
4 | PPP2R1A (from UniProt P30153 1-589) | binds | binds
5 | PRKCD (from UniProt Q05655 1-676) | binds | binds
6 | PTPN6 (from UniProt P29350 1-595) | binds | binds
7 | YWHAZ (from UniProt P63104 1-245) | binds | binds

Now from value to substance:

Row | binding [1] | binding [2] | Substance
8 | binds | binds | ARF4 (from UniProt P18085 1-180)
9 | binds |  | P4HB (from UniProt P07237 18-508)
10 | binds | binds | RHOG (from UniProt P84095 1-191)
11 | binds | binds | YWHAE (from UniProt P62258 1-255)
